Assay results taken from US20110293593A1, “SIVA 2 STABILIZATION” (YEDA RESEARCH AND DEVELOPMENT CO., LTD., priority 2008, published 2011).
Results are given in words; binding and its absence hold for the method and conditions named. Some entries that bind do so weakly or less than the wild type. Sequences can lack the tags named with a protein.

The chains behind the UniProt entries cited, without tags or fusion partners.
UniProt Q99558: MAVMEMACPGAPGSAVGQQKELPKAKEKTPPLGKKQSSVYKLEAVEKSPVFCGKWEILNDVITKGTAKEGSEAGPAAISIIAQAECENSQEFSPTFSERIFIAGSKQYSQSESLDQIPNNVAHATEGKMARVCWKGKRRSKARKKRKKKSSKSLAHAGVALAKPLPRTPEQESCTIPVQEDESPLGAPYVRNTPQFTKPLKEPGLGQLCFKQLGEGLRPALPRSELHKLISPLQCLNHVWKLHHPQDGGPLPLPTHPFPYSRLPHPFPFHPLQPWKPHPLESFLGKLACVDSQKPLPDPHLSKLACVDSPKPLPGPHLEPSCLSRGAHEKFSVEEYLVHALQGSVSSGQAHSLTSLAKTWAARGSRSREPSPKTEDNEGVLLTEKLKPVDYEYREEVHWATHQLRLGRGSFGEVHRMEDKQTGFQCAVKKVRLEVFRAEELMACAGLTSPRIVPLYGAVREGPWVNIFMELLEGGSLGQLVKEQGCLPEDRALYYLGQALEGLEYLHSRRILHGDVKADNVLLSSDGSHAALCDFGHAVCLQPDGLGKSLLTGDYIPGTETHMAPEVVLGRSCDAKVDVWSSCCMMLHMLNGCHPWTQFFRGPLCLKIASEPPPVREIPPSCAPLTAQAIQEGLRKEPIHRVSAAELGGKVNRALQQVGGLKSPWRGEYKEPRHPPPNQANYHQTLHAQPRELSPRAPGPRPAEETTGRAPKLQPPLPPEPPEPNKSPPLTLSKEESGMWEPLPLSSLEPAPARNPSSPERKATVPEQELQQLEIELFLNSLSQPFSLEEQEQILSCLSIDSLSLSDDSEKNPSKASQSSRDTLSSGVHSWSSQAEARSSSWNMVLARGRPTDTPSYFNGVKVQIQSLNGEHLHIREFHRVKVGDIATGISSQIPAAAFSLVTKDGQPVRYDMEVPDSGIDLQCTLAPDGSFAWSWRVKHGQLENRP

T1: FLAG-TRAF2 (C34A) (UniProt Q12933)
T1 sequence (looked up): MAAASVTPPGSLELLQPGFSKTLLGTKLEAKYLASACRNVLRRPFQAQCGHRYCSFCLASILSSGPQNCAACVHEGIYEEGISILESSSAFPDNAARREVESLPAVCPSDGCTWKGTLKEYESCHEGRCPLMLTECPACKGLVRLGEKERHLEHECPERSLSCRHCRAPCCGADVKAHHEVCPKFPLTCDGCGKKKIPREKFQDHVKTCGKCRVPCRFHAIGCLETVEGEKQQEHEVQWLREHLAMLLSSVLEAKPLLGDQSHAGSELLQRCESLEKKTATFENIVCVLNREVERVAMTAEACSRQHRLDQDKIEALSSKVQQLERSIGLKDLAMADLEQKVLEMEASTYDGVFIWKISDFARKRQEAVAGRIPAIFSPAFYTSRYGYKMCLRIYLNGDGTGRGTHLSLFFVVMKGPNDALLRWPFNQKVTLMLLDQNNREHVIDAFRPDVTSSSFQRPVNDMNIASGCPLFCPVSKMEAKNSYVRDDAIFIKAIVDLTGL


Experiments:
[1] = biological target: T1, FLAG-TRAF2 (C34A); assay: precipitation of FLAG-TRAF2 (C34A) from transfected HEK293T cells, western blot (FIG. 9B)
[2] = biological target: myc-NIK (UniProt Q99558); assay: immunoprecipitation of SIVA2 from co-transfected HEK-293T cells, western blot for NIK (FIG. 4C)

Binder | binding [1] | binding [2]
HIS-SIVA2 (other, not shown: small tags and cut ends, Expressed by transfection in HEK293T cells) MPKRSCPFADVAPLQLKVRVSQRELSRGVCAERYSQEVFDPSGVASIACSSCVRAVDGKAVCGQCERALCGQCVRTCWGCGSVACTLCGLVDCSDMYEKVLCTSCAMFET | binds | 
HIS-SIVA1 (protein, not shown: small tags and cut ends) MPKRSCPFADVAPLQLKVRVSQRELSRGVCAERYSQEVFEKTKRLLFLGAQAYLDHVWDEGCAVVHLPESPKPGPTGAPRAARGQMLIGPDGRLIRSLGQASEADPSGVASIACSSCVRAVDGKAVCGQCERALCGQCVRTCWGCGSVACTLCGLVDCSDMYEKVLCTSCAMFET | binds | 
HIS-SIVA2 (C73A) (protein, not shown: small tags and cut ends) MPKRSCPFADVAPLQLKVRVSQRELSRGVCAERYSQEVFDPSGVASIACSSCVRAVDGKAVCGQCERALCGQAVRTCWGCGSVACTLCGLVDCSDMYEKVLCTSCAMFET | binds | 
FLAG-SIVA2 3SA (protein, not shown: small tags and cut ends) MPKRACPFADVAPLQLKVRVSQRELSRGVCAERYSQEVFDPSGVASIACAACVRAVDGKAVCGQCERALCGQCVRTCWGCGSVACTLCGLVDCSDMYEKVLCTSCAMFET |  | binds
FLAG-SIVA2 6SA (protein, not shown: small tags and cut ends) MPKRACPFADVAPLQLKVRVAQRELARGVCAERYAQEVFDPSGVASIACAACVRAVDGKAVCGQCERALCGQCVRTCWGCGSVACTLCGLVDCSDMYEKVLCTSCAMFET |  | binds
